The text below walks through data of patent US6384083B1, “USE OF ADAMANTANE AMINES OR STRUCTURALLY SIMILAR COMPOUNDS FOR COMBATING BORNA DISEASE VIRUS AND FOR THE PREVENTION AND TREATMENT OF AFFECTIVE DISEASES AND OTHER DISORDERS ASSOCIATED WITH BDV INFECTIONS IN HUMANS AND ANIMALS” (priority 1996, dated 2002).

Counter-ions that a name gives are not always drawn.

The assay has as its system human BDV. The note with it: 1.2 μg/mL for 6 days, then untreated for following 6 days, daily passages.

On to `NC12CC3CC(CC(C3)C1)C2` [amantadine sulfate], for which the “BDV infection after the treatment-free interval” value is given as “could no longer be detected”.
